This note sets out measurements from publication PMC4738300, “Physiological lipid composition is vital for homotypic ER membrane fusion mediated by the dynamin-related GTPase Sey1p” (Scientific Reports, 2016).

No constants are given. Whether binding was seen depends on the method and setting. Sequences can lack the tags named with a protein.

For the test, the target named is Sey1p (tagged full-length recombinant Sey1p: GST-His6-3C-Sey1p and His6-3C-Sey1p) (S. cerevisiae) (UniProt Q99287). In words: condition: only with 1 mM ATP or without any nucleotide (no GTP); pull-down; as a1, but with 1 mM ATP or without any nucleotide in place of GTP; both purified.

B1: Sey1p (tagged full-length recombinant Sey1p: GST-His6-3C-Sey1p and His6-3C-Sey1p) (natural protein, S. cerevisiae, UniProt Q99287 1-776, looked up)
chain: MADRPAIQLIDEEKEFHQSALQYFQQCIGNRDVGLDYHVISVFGSQSSGKSTLLNVLFNTNFDTMDAQVKRQQTTKGIWLAHTKQVNTTIEIDNDRPDIFVLDVEGSDGSERGEDQDFERKAALFAIAVSEVLIVNMWEQQIGLYQGNNMALLKTVFEVNLSLFGKNDNDHKVLLLFVIRDHVGVTPLSSLSDSVTRELEKIWTELSKPAGCEGSSLYDYFDLKFVGLAHKLLQEDKFTQDVKKLGDSFVMKGTENYYFKPQYHHRLPLDGWTMYAENCWDQIERNKDLDLPTQQILVARFKTEEISNEALEEFISKYDESIAPLKGNLGSLTSQLVKLKEECLTKYDEQASRYARNVYMEKREALNTKLNSHISGTINEFLESLMEKLWDDLKLEVSSRDKATTSFVESVAAGKSKIEKEFNESMETFKKLGLLISNEEITCKFSDDIEERIKQLRDAELKAKIGRIKKNLVPELKDHVIHLLSHPSKKVWDDIMNDFESTIKDNISAYQVEKDKYDFKIGLSESENAKIYKNIRILAWRTLDTTVHDYLKIDTIVSILRDRFEDVFRYDAEGSPRLWKTEEEIDGAFRVAKEHALEVFEVLSLAVTSDNVEIIPDVPMAEEESGEDNEIYRDNEGVFHSRRFAHILTELQKENVLDQFRRQINITVLDSKRSIITTRTHIPPWIYVLLAVLGWNEFVAVIRNPLFVTLTLILGATFFVIHKFGLWGPVVNVVQSAVGETRTAIKDKLRQFVVEDHEVKESFEMKDFSKNEQKEK
notes: The bait copy is GST-His6-3C-Sey1p (pET-41 Ek/LIC) and the prey copy is His6-3C-Sey1p (pET-30 Ek/LIC); GST is on the bait copy only; The tags were not cleaved in the pull-down; also called GST-Sey1p; His6-Sey1p; source: E. coli Rosetta 2(DE3)pLysS, purified (COSMOGEL His-Accept beads, imidazole elution, dialysis; in 0.4% Triton X-100); not shown: His6, N-terminal, kept; GST, N-terminal, kept
B1: the binding result was “no binding”.
